# Test results taken from PubChem BioAssay AID1487 (National Center for Advancing Translational Sciences (NCATS), 2009).
# “And” between values parts separate entries of the source, which are not always exact repeats. Equal entries are not always repeated. The list shows a part of the results. Further columns of the screen follow, without active or inactive calls. Compounds called inactive in the main read-out are mostly missing here. Words in brackets tell the shape of the fitted curve; partial curves, single points and poor fits give uncertain potencies.
# Assay: qHTS Assay for Modulators of Lamin A Splicing
# Conditions: HeLa LMNA splicing GFP/RFP minigene ratio, 48 h
# In short: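 S3 HeLa cells stably expressing lamin A-EGFP splicing minigene plus DsRed2, 600 cells/well, 48 h compound exposure at 37C. Laser-scanning cytometry; analysed as GFP (500-530 nm)/RFP (575-640 nm) total intensity ratio; 0.5% DMSO vehicle.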
# [1] = measured here: GFP splicing reporter channel
# [2] = measured here: RFP viability control channel
Compound,AC50 [1],AC50 [2]
Cc1ccccc1NC(=O)c1ccc([N+](=O)[O-])o1,"22.4 µM [falling, single point]","35.5 µM [falling, partial curve]"
O=C(Nc1ccc(C(F)(F)F)cc1Cl)c1ccc(Cn2cc(Br)cn2)o1,–,"14.1 µM [rising, single point]"
CC(=O)c1ccc(NC(=S)N(C)C2CCN(C)CC2)cc1,"2.51 µM [rising, partial curve, poor fit]","15.8 µM [rising, partial curve, poor fit]"
Cc1cc(SCC(=O)c2ccccc2)n2nc(C)nc2n1,–,"15.8 µM [rising, single point]"
COc1cccc(C2=NOC(C(=O)Nc3ccccc3SC)C2)c1 (stereo not drawn),–,"22.4 µM [rising, single point]"
Cc1ccc(Cl)cc1NC(=O)Nc1cccs1,"1.26 µM [rising, partial curve]","0.794 µM [rising, full curve, poor fit]"
COc1cccc(-c2nnc3sc(-c4ccccn4)nn23)c1,–,"17.8 µM [rising, single point]"
O=C1CS/C(=N/N=C/c2ccncc2)N1,–,"0.398 µM [falling, full curve, poor fit]"
C/C(CC(=O)NC(C)(C)C)=N\NC(=O)COc1ccc(C)cc1Br,"2 µM [rising, partial curve]",–
COCCn1c(=O)[nH]c2cc(C(=O)NCCN3CCN(c4cccc(Cl)c4)CC3)ccc2c1=O,"14.1 µM [rising, single point]","25.1 µM [rising, single point]"
CCOc1ccc(NS(=O)(=O)c2ccc3[nH]c4c(c3c2)CCCC4)cc1,"35.5 µM [falling, single point]","35.5 µM [falling, single point]"
CCCCNC(C(=O)Nc1ccc([N+](=O)[O-])cc1Br)c1ccccc1 (stereo not drawn),"8.91 µM [rising, partial curve]","7.94 µM [rising, partial curve, poor fit]"
COc1ccc(-c2oc3ccccc3c(=O)c2O)cc1OC,"22.4 µM [falling, single point]","17.8 µM [falling, single point]"
Cc1nn2c(=O)cc(COC(=O)c3cccc(NC(=O)c4cccs4)c3)nc2s1,"12.6 µM [falling, partial curve]",–
O=C(/C=C\c1ccc(-c2cccc([N+](=O)[O-])c2)o1)N1CCOCC1,–,"25.1 µM [rising, single point]"
CCCCCCCCCC(=O)Nn1cnc2ccccc2c1=O,–,"0.112 µM [falling, full curve, poor fit]"
Cc1c(C(=O)Oc2cccc3ccccc23)cnn1-c1ccccc1,–,"35.5 µM [rising, single point]"
COc1ccc(Cl)cc1NC(=O)CN1CCCC1,–,"0.0708 µM [falling, full curve, poor fit]"
Cc1cc2cc(CN(CCN(C)C)C(=S)NCc3ccco3)c(=O)[nH]c2cc1C,"0.0794 µM [falling, full curve, poor fit]","0.0562 µM [falling, full curve, poor fit]"
Cc1cc([N+](=O)[O-])ccc1NC1CCCC1,"17.8 µM [rising, single point]","22.4 µM [rising, single point]"
CN(C(=O)COC(=O)c1ccc2c(c1)OCO2)C1CCS(=O)(=O)C1 (stereo not drawn),–,"0.01 µM [falling, full curve, poor fit]"
Cc1cc(C(=O)N/N=C/c2cc(Br)cc([N+](=O)[O-])c2O)c2ccccc2n1,"11.2 µM [rising, single point]","31.6 µM [rising, single point]"
O=C(CSc1n[nH]c(-c2ccccc2)n1)Nc1ncc(Br)cc1Br,"14.1 µM [rising, single point]","17.8 µM [rising, single point]"
COCC1CCN(C(=O)c2cc(COc3ccc4ncccc4c3)on2)CC1,"0.891 µM [falling, full curve, poor fit]","1 µM [falling, full curve, poor fit]"
Cc1ccc(Cn2ncc3c(N4CCN(c5ccc(C)cc5)CC4)ncnc32)cc1,"0.282 µM [rising, full curve]","0.224 µM [rising, full curve]"
S=C(Nc1cccc(Cl)c1)N1CCN(Cc2ccccc2)CC1,"12.6 µM [rising, partial curve, poor fit]","15.8 µM [rising, partial curve]"
CSCCC(NS(=O)(=O)c1ccc(Cl)cc1)C(=O)OCc1c(Cl)cccc1Cl (stereo not drawn),–,"35.5 µM [rising, single point]"

Compound,AC50 [1],AC50 [2]
CC(C)c1ccc(S(=O)(=O)/N=C2/C=C(Sc3ncn[nH]3)C(=O)c3ccccc32)cc1,"4.47 µM [falling, full curve]","3.98 µM [falling, full curve]"
Cc1ccc(C(C)C)c(OCC(=O)N2CCC(c3nc4ccccc4o3)CC2)c1,–,"3.16 µM [falling, full curve]"
O=C(CSC(=S)N1CCOCC1)Nc1nc(-c2ccccc2)c(-c2ccccc2)o1,"14.1 µM [falling, single point]",–
CCOc1ccccc1C(=O)Nc1ccc2c(c1)N(C)C(=O)c1ccccc1S2,"0.0316 µM [rising, full curve, poor fit]","4.47 µM [rising, full curve]"
Cc1cc(/C=N/n2cnnc2)c(C)n1-c1ccc(OCc2ccc(Cl)cc2)cc1,"3.55 µM [rising, partial curve]","3.55 µM [rising, partial curve]"
CCN(CC(=O)Nc1cc(Cl)ccc1C)C(=O)COc1ccccc1F,–,"0.0398 µM [falling, full curve, poor fit]"
COc1ccc(/C(N)=N/OC(=O)Cc2ccc(C)cc2)cc1OC,–,"35.5 µM [rising, partial curve]"
CCCCNC(=O)NS(=O)(=O)c1ccc(C)cc1,"316 nM [falling, full curve, poor fit] and 15.8 nM [falling, full curve, poor fit] and 6.31 µM [rising, single point]","0.224 µM [falling, single point]"
CC(=O)c1cn(CC(=O)NCc2ccc3c(c2)OCO3)c2ccccc12,"15.8 µM [rising, partial curve]","14.1 µM [rising, partial curve]"
Cc1ccc2nc(N/N=C/c3ccccc3C#N)nc(-c3ccccc3)c2c1,–,"31.6 µM [falling, single point]"
O=C(CCN1C(=O)COc2ccccc21)NCCN1CCN(c2ccccc2F)CC1,"10 µM [rising, partial curve]",–
Cc1cc(SCn2nnc3ccccc3c2=O)nc2ccccc12,–,"0.158 µM [rising, full curve, poor fit]"
OC(COc1ccccc1)Cn1c2ccccc2c2ccccc21 (stereo not drawn),–,"35.5 µM [rising, single point]"
CCOP(=O)(OCC)c1nc(/C=C/c2ccccc2)oc1NCc1ccc(OC)cc1,–,"25.1 µM [rising, single point]"
Cc1ccc(Oc2ccc(NC(=O)c3ccco3)cc2)cc1,"11.2 µM [rising, single point]","20 µM [rising, single point]"
Fc1cccc(F)c1/C=N/Nc1ccccn1,"0.01 µM [rising, full curve, poor fit]","0.00447 µM [rising, full curve, poor fit]"
COc1cc(/C=C(/Sc2nnc(-c3ccc(F)cc3)o2)C(=O)O)ccc1OC(F)F,–,"25.1 µM [rising, single point]"
Cn1c(=NC(=O)c2ccc3c(c2)OCCO3)sc2cc(S(C)(=O)=O)ccc21,"0.794 µM [rising, full curve, poor fit]","0.794 µM [rising, full curve, poor fit]"
c1ccc(CN2CCN(c3nc4ccccc4c4ccccc34)CC2)cc1,–,"11.2 µM [rising, partial curve, poor fit]"
CCOC(=O)c1cnc(-n2nc(C)cc2C)nc1NNc1nc(-c2ccccc2)cc(-c2ccccc2)n1,–,"11.2 µM [rising, partial curve]"
Cn1nc(C(=O)NCc2ccco2)c2ccccc2c1=O,"0.00447 µM [falling, full curve, poor fit]","0.00316 µM [falling, full curve, poor fit]"
Oc1c(Br)cccc1/C=N/Nc1c(F)c(F)c(F)c(F)c1F,"22.4 µM [rising, single point]","31.6 µM [rising, single point]"
O=C(N/N=C\c1cn(-c2ccccc2)nc1-c1ccccc1)c1ccc(Br)o1,"10 µM [falling, partial curve, poor fit]","14.1 µM [falling, partial curve, poor fit]"
CCn1c(SCC(=O)Nc2cccc(NC(=O)c3cccs3)c2)nnc1-c1ccncc1,–,"28.2 µM [rising, single point]"
CCOc1ccc2nc(NC(=O)CS(=O)(=O)c3ccc(Cl)cc3)sc2c1,–,"2.24 µM [rising, single point]"
Cc1cc(NC(=O)CSc2ncnc3c2cnn3-c2cccc(Cl)c2)no1,–,"3.98 µM [rising, full curve, poor fit]"

# Single records (already shown). Values in the order: AC50 [1]	AC50 [2]
# CC(=O)c1cn(CC(=O)NCc2ccc3c(c2)OCO3)c2ccccc12 is listed with 15.8 µM [rising, partial curve]	14.1 µM [rising, partial curve]
# CC(C)c1ccc(S(=O)(=O)/N=C2/C=C(Sc3ncn[nH]3)C(=O)c3ccccc32)cc1 is listed with 4.47 µM [falling, full curve]	3.98 µM [falling, full curve]
# CCn1c(SCC(=O)Nc2cccc(NC(=O)c3cccs3)c2)nnc1-c1ccncc1 is listed with –	28.2 µM [rising, single point]
